Measurements reported in PubChem BioAssay AID770 (SRMLSC, 2007).
The other results are listed elsewhere or left out.

Test: HT29 colon tumor cell growth inhibition, primary screen, imaging, high content imaging, 24 h, CellTiter-Glo (AID 770);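 on condensed nuclei: share of cells whose nuclear area falls below control median minus 1.5 SD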
Settings: HT29 cell number by imaging, at 10 µM, stronger effect = higher value; condensed nuclei: measured here: percent cells with condensed nuclei; growth inhibition: measured here: ATP CellTiter-Glo viability

| Structure (SMILES) | condensed nuclei [%] | growth inhibition [%] |
| --- | --- | --- |
| CCN(CC)CC(O)COC(=O)C(O)(c1ccccc1)C1CCCCC1 (stereo unspecified) | 2.75 | 13.8 |
| Cc1ccc(OCC(=O)OC2CN3CCC2CC3)cc1 (stereo unspecified) | 3.51 | 4.02 |
| Cc1cccc(OCC(=O)OC2CN3CCC2CC3)c1 (stereo unspecified) | 2.12 | -0.56 |
